Data as given in PubChem BioAssay AID1259405 (NCATS, 2018)
Aim: 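Mouse-designed siRNAs used to find CHO productivity engineering targets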 (primary screen). Cell system: Chinese hamster CHO-K1 ovary cells with stable secreted eGFP expression. Reagent: single siRNA against mouse genes, 0.8 pmol siRNA per well (2 µl of 400 nM stock). Time to read-out: 3 days. Read-out: 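Percent of the per-plate non-targeting control median for intracellular GFP per well by laser scanning cytometry and for cell viability by ATP luminescence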. Reading the numbers: GFP, % of control: higher = more GFP per well, higher productivity. Hit rule: 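Called active when intracellular GFP, relative to negative control, is at or above 120%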.
Here is one part, drawn at random, of about 50,000 reagents. About 4,000 of all reagents (8%) were called active. 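Mouse siRNA library applied to hamster cells; one well for each siRNA.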 Entries without a mark were called inactive. Reagents against one gene are numbered here. Further read-outs or replicates are left out here.

GFP, % of control, by gene and reagent
Stambpl1 (GeneID 76630): #1 105; #2 69.6
Slc22a30 (GeneID 319800): #1 86.3; #2 45.5; #3 51.4
Ckmt1 (GeneID 12716): #1 78.4
Sohlh1 (GeneID 227631): #1 48.1; #2 54.8; #3 101
Ccdc106 (GeneID 232821): #1 40.6; #2 75; #3 88.1
Adgrb2 (GeneID 230775): #1 83.2; #2 103; #3 81.2
Tox4 (GeneID 268741): #1 36.1; #2 54.6; #3 74.9
Irf1 (GeneID 16362): #1 113; #2 83; #3 79.4
Ap5b1 (GeneID 381201): #1 74.7; #2 90.9; #3 56.1
Zfp300 (GeneID 245368): #1 50.2; #2 89.1; #3 134 (active)
Fam110a (GeneID 73847): #1 97.8; #2 92.8; #3 90.8
Immp2l (GeneID 93757): #1 91.6; #2 58.6; #3 79.6
Adipoq (GeneID 11450): #1 67.8; #2 80.9
Gtsf1l (GeneID 68236): #1 95.8; #2 88.9; #3 81.6
Dpysl5 (GeneID 65254): #1 77.9; #2 48.4; #3 17.1
Map6 (GeneID 17760): #1 115; #2 28.5; #3 75.9

Records listed above called active (1):
GFP, % of control, by gene and reagent
Zfp300 (GeneID 245368): #3 134 (active)

The listing continues.
GFP, % of control, by gene and reagent
Igsf8 (GeneID 140559): #1 61.6; #2 86.9; #3 87.7
Gfap (GeneID 14580): #1 118; #2 112
Tor3a (GeneID 30935): #1 75; #2 54.7; #3 93.6
Mrps34 (GeneID 79044): #1 97.6; #2 24.2; #3 93.7
Lrrn4 (GeneID 320974): #1 103; #2 80.1; #3 60
Diaph3 (GeneID 56419): #1 70.4; #2 69.1; #3 57.6
Usp17le-ps (GeneID 667882): #1 117; #2 81.7; #3 111
Atg12 (GeneID 67526): #1 98.3; #2 105; #3 54
Ecd (GeneID 70601): #1 80.2; #2 59.6; #3 53
Prmt9 (GeneID 102182): #1 64.9; #2 81.2; #3 70.1
Sohlh2 (GeneID 74434): #1 79.5; #2 63.2; #3 102
Ccm2 (GeneID 216527): #1 80.4; #2 94.9; #3 74.8
Cacna1g (GeneID 12291): #1 44.8; #2 40.4; #3 78.6
Pth2 (GeneID 114640): #1 55.2; #2 60.1; #3 37.1
